What is called AC50 is the concentration giving half of the maximal activity seen.

SMILES strings stand for the structures. Some of the results follow. The main result of the screen is listed elsewhere. These columns were measured beside it and carry no call. Most of these compounds were active or inconclusive in the main read-out, so they are no random draw. Potencies come from curve fits of mixed quality, noted in brackets.

The values that follow come from PubChem BioAssay AID493014 (National Center for Advancing Translational Sciences (NCATS), 2011).

A short description of this assay: qHTS Assay to Find Inhibitors of Chronic Active B-Cell Receptor Signaling. The settings on record: ABC-DLBCL IkBa-CBG/CBR reporter, luminescence ratio (green luciferase fused to IkBa over red control in TMD8 lymphoma cells), 4 h. The method in brief:
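TMD8 human ABC-DLBCL cells with doxycycline-inducible IκBα–green luciferase fusion and unfused red luciferase, in 0.5% FBS medium; compounds up to 46 uM, 4 h at 37C. Green/red luminescence ratio, filter-overlap corrected, fitted to concentration-response curves.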
(In general: Quantitative high-throughput screening tests each substance at several concentrations.)

The mark [1] stands for this setting: measured here: CBR red luminescence, cell number.
Where [2] appears, read: measured here: IkBa-CBG green luminescence.

`COc1ccc(/C=N/Nc2nc(Nc3ccccc3)nc(N3CCCC3)n2)cc1`: the AC50 under setting [1] was 10 µM [falling, partial curve]. Take `CC1=CC=CC2=NC(=O)CC(C)(C(=O)N(CC(=O)NC3CCCC3)c3ccccc3C)N12` (stereo not drawn): the AC50 under setting [1] was 1.03 µM [falling, full curve, poor fit].

For the molecule `COc1cccc(NC(=O)c2cccc(OC)c2OC)c1`, the AC50 under setting [1] was 6.51 µM [rising, single point]. Same read-out and setting: for `COC(=O)C(NC(=O)CCc1c(C)nc2c(c(C)nn2-c2ccccc2)c1C)C(C)C` (stereo not drawn) the value was 35.5 µM [falling, single point]; for `Cc1ccc(C(=O)NNC(=O)c2ccccc2OCc2c(C)noc2C)cc1`, 4.61 µM [rising, partial curve]; for `C=CCN(CC=C)S(=O)(=O)c1ccc(NC(=S)NC(=O)/C=C/c2ccccc2)cc1`, 0.708 µM [rising, full curve]. Still for that read-out and setting: for `CC(C)Cc1csc(NC(=O)c2ccc(Br)cc2)c1C(=O)O` the value was 0.316 µM [falling, full curve]; for `NS(=O)(=O)c1ccc(CCNC(=O)C2CCC(CNS(=O)(=O)c3ccc(Br)s3)CC2)cc1` (stereo not drawn), 14.1 µM [rising, single point]; for `CC[C@@]12C(=O)N(c3cccc(Cl)c3)C(=O)N1[C@H](c1cccc(C)c1)[C@@H]1C(=O)N(Cc3ccccc3)C(=O)[C@@H]12`, 13 µM [falling, partial curve, poor fit]. For the molecule `Cn1c(C(=O)NCc2ccccn2)cc2c(=O)n(C)c3ccccc3c21`, the AC50 under setting [1] is 6.51 µM [falling, single point]. Same read-out and setting: the same measure for `COc1ccc(Cc2nc3ccc(C(=O)NCCc4ccccn4)cc3o2)cc1OC`: 22.4 µM [falling, partial curve]; for `CCOc1cccc(OCCOCCn2cnc3ccccc3c2=O)c1`: 0.00461 µM [falling, full curve, poor fit]; for `O=C(CSc1nc2ccccc2s1)Nc1ccc(N2CCOCC2)c(Cl)c1`: 18.4 µM [rising, single point]. Still for that read-out and setting: the same measure for `CC(=O)c1c(C)[nH]c(C(=O)NCCc2ccccc2)c1C`: 14.1 µM [falling, single point]; for `Cc1cc2n(n1)SC(Nc1ccccc1)N2` (stereo not drawn): 35.5 µM [falling, single point]. Turning to `Cc1ccccc1-c1nnc(-c2ccccc2)o1`, the AC50 under setting [1] is 25.9 µM [falling, partial curve, poor fit].

Regarding `O=C(CC1NCCc2ccccc21)Nc1ccc(Cl)cc1` (stereo not drawn), under setting [1], the AC50 was 8.91 µM [falling, partial curve]. Take `CSc1cccc(NC(=S)N(C(C)C)C(C)c2ccccn2)c1` (stereo not drawn): under setting [1], the AC50 was 35.5 µM [rising, single point]. The same measure, in the same setting: for `COc1ccccc1Cn1c(=S)[nH]c2cc(C(=O)NCc3cccnc3)ccc2c1=O` the value was 11.2 µM [falling, partial curve]. Still for that read-out and setting: for `COc1cc(OC)cc(-c2c(-c3cccs3)c3cc(-c4ccc(OC)c(F)c4)ccc3n2C)c1` the value was 29.1 µM [rising, single point]; for `O=C(CSc1nc2scc(-c3ccccc3)c2c(=O)[nH]1)NCCc1ccccc1`, 35.5 µM [rising, single point]. The same measure, in the same setting: the same measure for `CCN(CC)CCNC(=O)c1cc2c(=O)n(C)c3ccccc3c2n1C`: 29.1 µM [falling, single point]; for `N#Cc1nc(-c2ccccc2)oc1N1CCN(C(=O)c2ccco2)CC1`: 3.55 µM [rising, single point]; for `COc1cc(OC)cc(C(=O)NNC(=O)c2ccc3ccccc3n2)c1`: 8.2 µM [falling, partial curve, poor fit]. Consider `O=C(COC(=O)CCS(=O)(=O)c1ccc(Cl)cc1)Nc1ncc(Cl)cc1Cl`, for which the AC50 under setting [1] was 0.562 µM [falling, partial curve, poor fit].

`CCOC(=O)CCCSc1nc2sc3c(c2c(=O)[nH]1)CCC3`: the half-maximal activity concentration (AC50) under setting [1] is 0.461 µM [falling, full curve]. Still for that read-out and setting: the same measure for `COc1ccc(-c2nc(-c3ccc(Br)o3)no2)cc1OC`: 2.91 µM [rising, single point]; for `O=C(CSCc1ccco1)c1cccs1`: 35.5 µM [rising, single point]. In the case of `COc1cccc(NC(=O)c2oc3ccccc3c2NC(=O)C2CC2)c1`, the AC50 reads like this: under setting [1], 1.3 µM [falling, full curve, poor fit]; under setting [2], 4.61 µM [rising, full curve, poor fit]. `CCCCCCC(=O)Nc1ccc(Br)cn1`: the AC50 under setting [1] was 2 µM [rising, full curve, poor fit]. Same read-out and setting: for `Cc1cc(-n2c(C)cc(C(=O)CSc3ncnc4ccccc34)c2C)no1` the value was 35.5 µM [falling, single point].

For `COc1ccc(Br)cc1-c1noc(-c2ccccc2)n1`, the AC50 under setting [1] is 29.1 µM [falling, single point] and the AC50 under setting [2] was 32.6 µM [rising, partial curve, poor fit]. As for `CCN(CCNC(=O)C1CCN(Cc2nc(-c3cccc(Cl)c3)oc2C)CC1)c1ccccc1`, the AC50 under setting [1] was 35.5 µM [falling, single point]. On the same count and under the same terms, for `O=C(CSc1ncccc1-c1nc2ccccc2[nH]1)N1CCCCC1` the value was 1.12 µM [falling, full curve, poor fit]. For `CCSS(=O)(=O)c1cccc2cccnc12`, the AC50 under setting [2] is 20 µM [falling, partial curve, poor fit]. Turning to `O=C(N/C=C/c1ccco1)OCc1ccccc1`, the AC50 under setting [1] is 0.1 µM [rising, full curve, poor fit]. On to `CCCSc1nnc2[nH]c(=O)cc(C)n12`, for which the AC50 under setting [1] is 2.24 µM [rising, full curve, poor fit]. For the molecule `CCCCCCCCNC(=O)c1cnsn1`, the AC50 under setting [1] was 0.164 µM [rising, full curve, poor fit]. Same read-out and setting: the same measure for `C(=N\Nc1ncnc2ccccc12)/c1ccccc1`: 10 µM [falling, partial curve]; for `COc1c([N+](=O)[O-])c(=O)oc2ccccc12`: 29.1 µM [falling, single point]; for `CCOC(=O)c1ccc(N=c2sc(C(=O)OC)cc(=O)n2Cc2ccco2)cc1`: 6.51 µM [falling, full curve].

Turning to `O=C1c2ccccc2C(=O)N1CCCc1nc2ccccc2c(=O)n1CCCn1ccnc1`, under setting [1], the AC50 was 35.5 µM [rising, single point]. Consider `O=C(CSc1nnc(-c2cccs2)n1-c1ccccc1)N1CCOCC1`, for which the AC50 under setting [1] is 0.0731 µM [rising, full curve, poor fit]. On the same count and under the same terms, the same measure for `CC(=O)N1C(=O)c2cccc3cccc(c23)C(=O)N1C(C)=O`: 4.61 µM [rising, full curve, poor fit]; for `C=CCCCCCCCCC(=O)Nc1ncccn1`: 3.55 µM [rising, partial curve, poor fit]; for `COc1ccc(C(CNC(=O)CN(C)S(=O)(=O)c2ccc(C)cc2)N2CCCC2)cc1` (stereo not drawn): 0.146 µM [rising, full curve, poor fit].

In the case of `O=C(c1cnc2n(c1=O)CCS2)N1CCN(c2ccccc2F)CC1`, the AC50 under setting [1] was 6.51 µM [rising, full curve, poor fit].

Regarding `O=C(COC(=O)c1ccc(O)cc1O)N=c1sccn1Cc1ccccc1Cl`, the AC50 under setting [1] is 29.1 µM [falling, single point]. In the case of `O=C(N/N=C/c1cn(-c2cccs2)nc1-c1ccccc1)c1ccccc1Br`, the AC50 under setting [1] is 7.31 µM [falling, partial curve, poor fit] and the AC50 under setting [2] is 23.1 µM [rising, partial curve, poor fit]. Regarding `CC1CCc2c(C(=O)Nc3ccc(OC(F)(F)F)cc3)csc2C1` (stereo not drawn), the AC50 under setting [1] was 2.59 µM [rising, full curve]. In the case of `CSc1nnc(-c2ccccc2N=Cc2c(C)[nH]n(-c3ccc4ccccc4c3)c2=O)c(=O)[nH]1`, the AC50 under setting [1] was 2.82 µM [falling, full curve, poor fit]. Still for that read-out and setting: the same measure for `CCCCN(CC)Cc1ccc(CNC(=S)Nc2c(C)cc(C)cc2C)o1`: 6.31 µM [falling, full curve]; for `O=C(O)C1CC=CCC1C(=O)NC12CC3CC(CC(C3)C1)C2` (stereo not drawn): 29.1 µM [falling, single point].

With `O=[N+]([O-])c1ccc(NCCCNS(=O)(=O)c2ccc(Cl)cc2)c(Cl)c1`, under setting [1], the AC50 is 10 µM [falling, partial curve]. Same read-out and setting: the same measure for `O=C(O)c1ccc2cccnc2c1O`: 0.708 µM [falling, full curve]; for `O=C(NC1CCCC1)c1cc(-c2ccc(Cl)cc2)on1`: 4.47 µM [falling, full curve, poor fit]; for `CCn1cnc2c(Nc3cccc(Cl)c3)nc(C#N)nc21`: 25.9 µM [rising, single point]. On the same count and under the same terms, the same measure for `COc1ccc(OC(=O)Cc2cccc3ccccc23)cc1`: 12.6 µM [rising, partial curve]. On the same count and under the same terms, the same measure for `O=C(N/N=C/c1ccc([N+](=O)[O-])o1)C1CCCC1`: 4.47 µM [falling, partial curve, poor fit]; for `O=C(O)CCCCCN1C(=O)/C(=C/c2ccncc2)SC1=S`: 0.146 µM [falling, full curve]; for `O=C(CSc1nc(O)c(Cc2ccccc2)c(=O)[nH]1)Nc1ccccc1`: 0.82 µM [falling, full curve, poor fit]. Turning to `COc1ccc(Cl)cc1NC(=O)CNc1ccc(F)cc1C`, the AC50 under setting [1] is 18.4 µM [falling, partial curve]. Still for that read-out and setting: for `O=C(Nc1cccc(C(F)(F)F)c1)c1cc(-c2ccc(F)cc2)on1` the value was 32.6 µM [falling, single point]; for `CC1CCCCN1C(=O)C1CCN(c2nc(-c3ccccc3)nc3c2CCC3)CC1` (stereo not drawn), 11.2 µM [falling, partial curve, poor fit]. On the same count and under the same terms, for `Cc1ccccc1NC(=S)NNC(=O)c1ccncc1` the value was 22.4 µM [falling, partial curve, poor fit].
